Measured values reported in the supplement of paper PMC4604168 (melanoma cell lines).
Some of the results follow. Many values rest on one well or one pass, so single values are uncertain.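 Imaging used 1,536-well plates; nuclei positive for cleaved PARP by antibody were divided by total DNA-stained nuclei to yield the apoptosis fraction. Doses for screening kept most cells viable, and cell lines differ markedly in resting and induced cleaved-PARP levels.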

system: LOXIMVI; test: cleaved PARP positive nuclei fraction relative to DMSO control; melanoma cells; higher = more apoptosis; details: library dose: low library concentration; 72 h

| SMILES | cleaved PARP positive nuclei fraction [%] |
| --- | --- |
| C[As](C)SC[C@H](NC(=O)CC[C@H](N)C(=O)O)C(=O)NCC(=O)O [Darinaparsin] + CCN(CC)CCCCNc1ncc2cc(-c3cc(OC)cc(OC)c3)c(NC(=O)NC(C)(C)C)nc2n1 [PD173074] (first compound 0.4 µM, partner dose 0.1 µM) | 13.5 |
| Cc1cc(SCc2sc(-c3ccc(C(F)(F)F)c(F)c3)nc2C)ccc1OCC(=O)O + C/C(O)=C(\C#N)C(=O)Nc1cc(Br)ccc1Br [LFM-A13] (first compound 2 µM, partner dose 2 µM) | 44.5 |
| O=C(Nc1cccc(Cl)c1)Nc1ncc(CCNc2ncnc3ccsc23)s1 + O=C(Oc1ccc([N+](=O)[O-])cc1)N1CCC(C(O)(c2ccc3c(c2)OCO3)c2ccc3c(c2)OCO3)CC1 [JZL184] (first compound 0.0008 µM, partner dose 1 µM) | 129 |
| COc1cc2c(Oc3ccc4[nH]c(C)cc4c3F)ncnc2cc1OCCCN1CCCC1 [cediranib] + Cc1cc(SCc2sc(-c3ccc(C(F)(F)F)c(F)c3)nc2C)ccc1OCC(=O)O [GW0742] (first compound 0.4 µM, partner dose 2 µM) | 66.4 |
| CC1(C)NC(=O)N(c2ccc([N+](=O)[O-])c(C(F)(F)F)c2)C1=O [nilutamide] + Cc1cc(SCc2sc(-c3ccc(C(F)(F)F)c(F)c3)nc2C)ccc1OCC(=O)O [GW0742] (first compound 1 µM, partner dose 2 µM) | 197 |
| COC(=O)c1sccc1S(=O)(=O)Nc1ccc(Nc2ccccc2)cc1OC + O=C(Oc1ccc([N+](=O)[O-])cc1)N1CCC(C(O)(c2ccc3c(c2)OCO3)c2ccc3c(c2)OCO3)CC1 [JZL184] (first compound 1 µM, partner dose 1 µM) | 41.6 |

An excerpt of these results, with bars between the fields.
SMILES | cleaved PARP positive nuclei fraction [%]
C[As](C)SC[C@H](NC(=O)CC[C@H](N)C(=O)O)C(=O)NCC(=O)O [Darinaparsin] + CCN(CC)CCCCNc1ncc2cc(-c3cc(OC)cc(OC)c3)c(NC(=O)NC(C)(C)C)nc2n1 [PD173074] (first compound 0.4 µM, partner dose 0.1 µM) | 13.5
COC(=O)c1sccc1S(=O)(=O)Nc1ccc(Nc2ccccc2)cc1OC + O=C(Oc1ccc([N+](=O)[O-])cc1)N1CCC(C(O)(c2ccc3c(c2)OCO3)c2ccc3c(c2)OCO3)CC1 [JZL184] (first compound 1 µM, partner dose 1 µM) | 41.6
